One data set deals with YB-1 CSD (UniProt P67809). Nature of the data set: NMR (1H-15N HSQC). Particulars: single peaks; NMR: 25 mM phosphate pH 6.8, 25 mM KCl, 298 K, 50-100 uM protein; recombinant protein; residues 50-129.
The target in a further data set is YB-1-RK R97A,K98A (UniProt P67809). Nature of the data set: fluorescence melting. As to conditions: melting less than YB-1C, read-out is unwinding; melting: 10 mM HEPES-KOH pH 7.6, 130 mM KCl, 30 C; recombinant protein; residues 1-180; protein details: His tag (Ni-NTA); label: 5' FAM, 3' BHQ1; folded or branched DNA.
The target of another data set is YB-1-KY K137A,Y138A (UniProt P67809). In words: fluorescence melting. As to conditions: melting less than YB-1C, read-out is unwinding; melting: 10 mM HEPES-KOH pH 7.6, 130 mM KCl, 30 C; recombinant protein; residues 1-180; protein details: His tag (Ni-NTA); label: 5' FAM, 3' BHQ1; folded or branched DNA.
Another data set addresses YB-1C (UniProt P67809). In words: NMR (1H-15N HSQC). Particulars: single peaks, multimer; NMR: 25 mM phosphate pH 6.8, 25 mM KCl, 298 K, 50-100 uM protein; recombinant protein; residues 1-180; protein details: His tag (Ni-NTA); single-stranded DNA.

Chains of the proteins cited; added tags and fusions are not shown. Residues count along the entry.
UniProt P67809, 50-129: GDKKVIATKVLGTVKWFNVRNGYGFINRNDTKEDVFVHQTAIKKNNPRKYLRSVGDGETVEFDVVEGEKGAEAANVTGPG
UniProt P67809, 1-180 R97A/K98A: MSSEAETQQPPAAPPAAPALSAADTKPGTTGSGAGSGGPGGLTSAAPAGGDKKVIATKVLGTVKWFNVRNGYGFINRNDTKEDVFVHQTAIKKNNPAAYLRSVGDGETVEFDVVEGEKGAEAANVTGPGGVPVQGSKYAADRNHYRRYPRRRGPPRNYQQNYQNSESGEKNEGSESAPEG
UniProt P67809, 1-180 K137A/Y138A: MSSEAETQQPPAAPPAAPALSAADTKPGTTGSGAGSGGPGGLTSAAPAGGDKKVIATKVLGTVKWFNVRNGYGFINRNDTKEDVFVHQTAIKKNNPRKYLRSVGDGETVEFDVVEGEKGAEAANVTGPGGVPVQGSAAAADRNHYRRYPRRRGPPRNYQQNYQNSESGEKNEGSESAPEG
UniProt P67809, 1-180: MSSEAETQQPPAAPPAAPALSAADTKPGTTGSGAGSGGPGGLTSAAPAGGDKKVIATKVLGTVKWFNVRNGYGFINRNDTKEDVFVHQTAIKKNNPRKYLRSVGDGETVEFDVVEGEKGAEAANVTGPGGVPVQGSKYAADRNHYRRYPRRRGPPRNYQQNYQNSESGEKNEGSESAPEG

For some of these results: The comparison behind a weaker result is the experiment's own reference, which may not be listed here. For some of these results: For at least one entry, the source does not settle the construct or the ends of the probe. For some of these results: At least one verdict was read from the data and is not stated in words by the source.

For “ACAGACAGAACCCCUUCUGUCUGU [ACU-4G RNA stem/loop]”, the binding result with YB-1 CSD was “binds”.
Take GGGGGGGGTTAACCCCCCCC [DNA1 hairpin]: the binding result with YB-1-RK R97A,K98A and with YB-1-KY K137A,Y138A was “binds more weakly” throughout.
“TTTTTTTTTTTTTTTTTTTTTTTTTTTTTT [poly(T) 30 nt]”: the binding result with YB-1C is recorded as “binds”.

For the origin of these results see PMC8464072.
